# From the supplement of paper PMC8846439
# The list shows a part of the results. Repeats are few or missing, and single values can be far off.
# System: Trypanosoma brucei brucei bloodstream form L262P (kDNA-independent)
# Test: viability Z-score (nuclei count per well, median-polish normalised, relative to plate distribution); higher = more viable parasites (negative = growth inhibition)
# Details: 4 days; compound concentration: 10 µM (some Prestwick/PKE rows may be 1 µM / not distinguished)
row,SMILES,viability Z-score
1,COc1cc(/C=N/N2CCN(c3ccc(C)cc3)CC2)ccc1OCc1ccccc1,-4.79
2,[F]C([F])([F])C1=CC=C(C=C1)N2C=N/N=C2/[S]C/C3=N/C(=NO3)COC=4C([Cl])=CC=CC=4[Cl],-3.38
3,CSc1nc(Cl)cn(C)c1=O,-5.83
4,O=[S](=O)(NC=1N=CC([Cl])=CC=1)C=2/C=C(/[Br])C([Cl])=NC=2,-2.23
5,O=C(N/C2=C/C=C(/CN1/N=C(/C)C=C1C)C=C2)C3=CC(=NC=4C=CC=CC3=4)C=5/C=C(/C)C(C)=CC=5,-3.54
6,O=C2C=C(/N=C(/CC(=O)C=1C=CC([Cl])=CC=1)N2C)CCC,-1.18
7,C1(c2c(/N=C(\N1)/C)ccc(c2)CN(c1sc(C(N[C@H](C(=O)O)CCC(=O)O)=O)cc1)C)=O [Raltitrexed],-3.47
8,O=C(CN2C=1C=CC=CC=1N3CCCN=C23)C4=C/C=C(/[Br])C=C4,-2.95
9,O=C(NC12CC3([H])CC([H])(C1)C[C@@]([H])(C2)C3)C=4C=CC=CC=4NC(=O)C/C5=C/C=CC=C5,-5.8
10,O/C1=C(/C=CC2=CC=CN=C12)[C@@]([H])(N/C3=N/C=CC=C3)C4=CC=C(C=C4)OCCC,-2.26
11,O=C(NCCCCCC(=O)O)C=1/C=C(/OC)C(=CC=1)OC,-2.65
12,OC(/C2=C/C(=C1C=CC=C/C1=C2\N)C(O)(C([F])([F])[F])C([F])([F])[F])(C([F])([F])[F])C([F])([F])[F],-1.97
13,O=C(O)[C@@]([H])(N/C1=N/C=NC=2C=CC=CC1=2)[C@@](C)([H])CC,-4.24
14,NC(=NCCCCCCN=C(N)N=C(N)Nc1ccc(Cl)cc1)N=C(N)Nc1ccc(Cl)cc1 [Chlorhexidine],-3.42
15,Cc1[nH]cnc1CN1CCc2c(c3ccccc3n2C)C1=O.Cl [Alosetron hydrochloride],-1.89
16,O=C(NC/C1=C/C=C(/[Cl])C=C1)[C@@]3([H])OC=2C=CC=CC=2OC3,-3.72
17,C/C(=N\OCC(=O)NNC(=O)COc1cc(C)c(Cl)cc1C(C)C)c1cccs1,-3.05
18,CC(/C=C/C(=O)NO)=C\[C@@H](C)C(=O)c1ccc(N(C)C)cc1 [Trichostatin A],-4.68
19,CCCC(CCC)C(=O)O [Valproic acid],-5.26
20,CC[N+](C)(CC)CCC[n+]1c(-c2ccccc2)c2cc(N)ccc2c2ccc(N)cc21 [Propidium iodide],-5.04

# 3 successive entries from above, for reference:
row,SMILES,viability Z-score
8,O=C(CN2C=1C=CC=CC=1N3CCCN=C23)C4=C/C=C(/[Br])C=C4,-2.95
9,O=C(NC12CC3([H])CC([H])(C1)C[C@@]([H])(C2)C3)C=4C=CC=CC=4NC(=O)C/C5=C/C=CC=C5,-5.8
10,O/C1=C(/C=CC2=CC=CN=C12)[C@@]([H])(N/C3=N/C=CC=C3)C4=CC=C(C=C4)OCCC,-2.26

# Later entries:

row,SMILES,viability Z-score
1,O=C(N/C1=C/C=CC=C1)C2=NO[C@]([H])(C2)C(=O)OC,-4.69
2,COC(=O)C1=C(C)NC(C)=C(C(=O)OC)C1C(=O)O,-3.04
3,O=[N+]([O-])C=4/C=C(/NC=1N=C(N=C2C=CC=CC=12)C3=CC=CC=C3)C=CC=4,-5.7
4,CN(C)S(=O)(=O)c1ccc2nc(NC(=O)C(c3ccccc3)c3ccccc3)sc2c1,-1.72
5,C/C1=C(/O/N=C1/C)C2=CN=C(/N=C2/C=3OC=CC=3)NC[C@]4([H])OCCC4,-3.08
6,CC=1C=CC=CC=1OCC[S]/C3=N/C=2C=CC=CC=2N3,-4.05
7,Cc1ccccc1Cn1cnc2ccccc21,-1.4
8,CCN1CCC[C@H]1CNC(=O)c1c(O)c(Cl)cc(Cl)c1OC [Raclopride],-1.82
9,C=1(N=CC=CN=1)[S]CCO/C3=C/C=C(/OC/C2=C/C=CC=C2)C=C3,-2.96
10,O=C(CC=1[S]C=CC=1)N(/C2=C/C=CC=C2)[C@@](C)(CC)C(=O)N[C@]3([H])CCCCC3,-4.52
11,O=C(CCCO)c1ccc2c(c1)OCCO2,-2.15
12,O=C2C=1N(CCC)C(=NC=1N(C)C(=O)N2C)N3CCN(CC3)C(=[S])NC=4C=C/C=C(/C)C=4C,-3.61
13,Cc1ccc([C@H]2Nc3ccccc3NC3=C2C(=O)C[C@H](c2ccccc2)C3)o1,-5.37
14,CCn1ncc(C(CC(=O)c2ccccc2)CC(=O)c2ccccc2)c1C,-1.56
15,CCOC(=O)N1CCN(C(=O)C(=O)NN)CC1,-6.11
16,O=C(N/C1=C/C=C(N=C1)O/C2=C/C=C(C=C2)C(C)(C)C)C=3C(=NOC=3C)C4=C([Cl])C=C/C=C4/[Cl],-4.38
17,O=C(/C=C/C#Cc1cccc(NS(=O)(=O)c2ccccc2)c1)NO [Oxamflatin],-3.52
18,COc1ccc([C@@H]2CC(=O)c3c(O)cc(O[C@@H]4O[C@H](CO[C@@H]5O[C@@H](C)[C@H](O)[C@@H](O)[C@H]5O)[C@@H](O)[C@H](O)[C@H]4O)cc3O2)cc1O [Hesperidin],-1.89
19,CC(Cn1nc([N+](=O)[O-])cc1C)=NNC(=O)c1cc(Br)n(C)n1,-3.69
